The nature of the experiment: qHTS Assay for Lipid Storage Modulators in Drosophila S3 Cells.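 As to cell number change: cells counted by Cell Tracker Red CMTPX staining in the red channel.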 As to conditions: BODIPY lipid droplet fluorescence, 18-24 h; for cell number change: measured here: cell count max response, cells fed with added oleic acid. An outline of the steps: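 Drosophila S3 cells loaded with oleic acid (400 uM, as added) and compounds at several concentrations; lipid droplets imaged by 488-nm laser-scanning cytometry, 500–530 nm intensity and object ratio to cell channel. Percent activity normalized to 20 uM Triacsin C.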
On the technique in general: qHTS replaces the single test concentration by a dilution series.

Setting [1] is: measured here: cell number channel AC50, cells fed with added oleic acid.
[2] abbreviates: measured here: lipid fluorescence (Fed channel) AC50, cells fed with added oleic acid.

Each structure is given as a SMILES string. The list shows a part of the results. Further columns of the screen follow, without active or inactive calls. The list favours compounds with an active or inconclusive main result. The note in brackets gives the kind of curve behind each potency; many fits are weak.

With `Cc1c(-c2ccco2)[n+](=O)c2c(n1[O-])CCC2`, the cell number change is -13.6%.

Regarding `Cc1ccc(NC(=O)CCNC(=O)c2ccc(Cl)cc2)cc1F`, under setting [1], the AC50 (commonly the midpoint of the concentration-response curve, whichever way the signal moves) is 0.461 µM [rising, partial curve, poor fit].

Take `COc1ccc(C(C(=O)NC2CCCC2)N(C(=O)c2ccoc2C)c2ccc(C)cc2)cc1` (stereo unspecified): the cell number change was -47.8%. For the same molecule, under setting [1], the AC50 is 7.31 µM [falling, single point]. Under setting [2], the AC50 was 3.66 µM [falling, full curve].

In the case of `Cc1nnc2c3ccccc3c(-c3ccc(O)cc3)nn12`, the cell number change was determined as 57.2%. In addition, the AC50 under setting [1] was 6.51 µM [rising, full curve]. Besides, under setting [2], the AC50 is 7.31 µM [rising, partial curve].

As for `COc1ccc(N2C(=O)CCC(C(=O)N(C)C3CCCCC3)C2c2ccc(OC)c(OC)c2)cc1` (stereo unspecified), the cell number change turned out to be 7.93%.

With `COC(=O)C1=C(C)N(c2ccc(Cl)cc2)/C(=C/c2ccc(O)cc2)C1=O`, the cell number change is -2.68%.

As to `NCCc1c(-c2ccccc2)n(-c2ccccc2)c2ccccc12`, the cell number change is -2.77%.

`Nc1nnc(SCC(=O)NNC(=O)c2ccc(Cl)cc2)s1`: the cell number change was -4.9%. Also, the AC50 under setting [2] is 6.51 µM [rising, single point].

On to `CCC(C)NC(=O)c1ccc(NC(=O)C2CCCO2)cc1` (stereo unspecified), for which the AC50 under setting [1] is 3.66 µM [falling, single point].

Regarding `O=C(c1ccc(Br)o1)N1CCN(c2ccc3nnc(-c4ccc(F)cc4)n3n2)CC1`, the cell number change was -7.22%. The AC50 under setting [2] was 1.3 µM [rising, full curve].

Turning to `O=C(CNC(=O)c1ccco1)NCC(=O)OCc1ccc(C(=O)Oc2ccc(Cl)cc2)cc1`, the cell number change was -0.475%. The AC50 under setting [2] was 0.58 µM [rising, single point].

For `CCC(=O)Nc1ccc(C(=O)NNC(=O)C2CCCCC2)cc1`, the cell number change turned out to be 8.5%. Further, the AC50 under setting [2] was 29.1 µM [rising, single point].

Regarding `CCc1ccccc1NC(=O)CSc1nnc(C2CC2)n1CC1CCCO1` (stereo unspecified), the cell number change was determined as 2.25%. In addition, the AC50 under setting [2] was 11.6 µM [falling, single point].

For `O=C(CN1C(=O)NC2(CCCCCCC2)C1=O)N1CCN(C(=O)c2ccco2)CC1`, the cell number change is 4.67%.

`O=C(O)CCc1ccc(-c2cccs2)n1NC(=O)c1ccc(Cl)cc1Cl`: the cell number change is -0.752%. In addition, under setting [2], the AC50 is 0.082 µM [rising, full curve, poor fit].

`CCOC(=O)C(Cc1cc(C(C)=O)ccc1OC(C)C)C(=O)OCC`: the cell number change is -7.89%.

`CCN1C(=O)[C@@H]2[C@@H](c3ccc(-c4ccc(C(C)=O)cc4)c(OC)c3)N3CCCC[C@@]3(C(=O)OC)[C@@H]2C1=O`: the cell number change is -4.16%. Further, the AC50 under setting [2] is 1.64 µM [falling, partial curve, poor fit].

As for `Cc1onc(-c2ccccc2)c1-c1ccnn1S(=O)(=O)c1ccc(Cl)cc1`, the cell number change worked out at 15%. For the same molecule, under setting [2], the AC50 is 0.82 µM [rising, partial curve, poor fit].

Regarding `N#CC(c1ccccc1)c1ccc(C(=O)c2ccc(F)cc2)cc1` (stereo unspecified), the cell number change is -30.5%. The AC50 under setting [1] was 13 µM [falling, single point]. In addition, under setting [2], the AC50 was 0.103 µM [falling, full curve, poor fit].

With `COc1cc(CNCc2cccs2)ccc1OCc1cccs1`, the cell number change was 21.4%. For the same molecule, the AC50 under setting [2] is 0.164 µM [rising, partial curve, poor fit].

In the case of `CC[C@@H](C)[C@H](NC(=O)Cc1c(C)c2cc3c(C)c(C)oc3c(C)c2oc1=O)C(=O)O`, the cell number change is 15.4%. Further, the AC50 under setting [2] was 13 µM [rising, single point].

Consider `CC[n+]1c(/C=C2\Sc3ccccc3N2C)ccc2cccc(C)c21`, for which the cell number change was -102%. Further, under setting [1], the AC50 was 2.31 µM [falling, partial curve]. Besides, the AC50 under setting [2] was 0.231 µM [falling, full curve, poor fit].

For `COc1cccc(CCN2CCC(CNS(=O)(=O)c3cc(-c4cc(C)no4)ccc3OC)CC2)c1`, the cell number change was 27.5%. Further, under setting [2], the AC50 was 29.1 µM [rising, single point].

Take `CCCCN(CCCC)C1=Nc2ccccc2N/C1=C(/C#N)C(=O)OCC`: the cell number change is -43.2%. Further, the AC50 under setting [1] was 20.6 µM [falling, single point]. For the same molecule, the AC50 under setting [2] is 18.4 µM [falling, partial curve, poor fit].

For `CN(C)CCCNc1ccc(-c2n[nH]c(=O)c3ccccc23)cc1[N+](=O)[O-]`, the cell number change turned out to be 0.88%.

With `CNc1ccccc1C(C)(C)c1cc(C)[nH]n1`, the cell number change is 20.8%. In addition, the AC50 under setting [2] is 29.1 µM [falling, single point].

As to `COc1ccc(/C(N)=N/OC(=O)C2CCC(=O)N2S(=O)(=O)c2ccc(C)cc2)cc1` (stereo unspecified), the cell number change came out at 36%. The AC50 under setting [1] is 8.2 µM [rising, partial curve]. Also, the AC50 under setting [2] was 0.103 µM [rising, full curve, poor fit].

With `COCCSc1nnc(NC(=O)c2cc(OC)c(OC)cc2[N+](=O)[O-])s1`, the cell number change was 119%.

As for `COc1nc(NCCO)nc(Nc2cc(Cl)ccc2OC)n1`, the AC50 under setting [2] is 29.1 µM [falling, single point].

For `CCn1c(-c2ccc(C)cc2)n[nH]c1=S`, the cell number change was 7.98%. Also, under setting [2], the AC50 is 6.51 µM [rising, partial curve].

On to `COc1cc(NS(=O)(=O)c2ccc(NC(=O)c3ccc(S(=O)(=O)N4CCCC4)cc3)cc2)ncn1`, for which the cell number change is -61.6%. Under setting [1], the AC50 is 29.1 µM [falling, single point]. The AC50 under setting [2] was 20.6 µM [falling, single point].

As for `Cc1cccc(NS(=O)(=O)c2ccc(C)c(C(=O)NCC(c3ccccc3)N(C)C)c2)c1` (stereo unspecified), the cell number change is -5.08%. Also, the AC50 under setting [2] is 2.91 µM [rising, single point].

For the molecule `CC(COc1ccccc1)N(CCCl)Cc1ccccc1` (stereo unspecified), the cell number change is -2.93%. In addition, the AC50 under setting [2] was 0.651 µM [falling, single point].

Turning to `CC(C)(C)c1cc(CCC(=O)NNC(=O)c2ccco2)cc(C(C)(C)C)c1O`, the AC50 reads like this: under setting [1], 0.291 µM [rising, full curve]; under setting [2], 0.731 µM [rising, full curve].

Turning to `O=S(=O)(c1ccccc1)N1CCN(Cc2ccc(Cl)cc2)CC1`, the cell number change is -20.5%. The AC50 under setting [2] is 29.1 µM [falling, single point].

For the molecule `Cc1ccccc1C(=O)N1CCN(c2ccc(NC(=S)NC(=O)c3cccs3)cc2)CC1`, the cell number change was -19.1%. Also, under setting [1], the AC50 is 0.103 µM [falling, partial curve, poor fit].

As for `O=C(Nc1cc(S(=O)(=O)N2CCOCC2)ccc1N1CCOCC1)c1cnccn1`, the cell number change was -12.7%. The AC50 under setting [1] was 0.82 µM [falling, full curve, poor fit].

As for `Nc1ccc(N2CCN(C(=O)c3cccs3)CC2)cc1`, the cell number change was 22.2%. Further, the AC50 under setting [2] was 6.51 µM [rising, single point].

In the case of `COc1ccc(NC(=O)c2sc3nc(C)nc(N4CCN(c5ccccn5)CC4)c3c2C)cc1Cl`, the cell number change was 57.6%. For the same molecule, the AC50 under setting [1] is 16.4 µM [rising, single point]. Besides, the AC50 under setting [2] was 6.51 µM [falling, single point].

On to `Clc1ccccc1CSc1nnc(-c2ccccn2)n1Cc1ccco1`, for which the cell number change was determined as 59.8%. For the same molecule, under setting [1], the AC50 is 29.1 µM [rising, single point].

In the case of `O=C(Cn1cnc2ccccc2c1=O)Nc1nc2ccccc2s1`, the cell number change is -2.55%. Under setting [2], the AC50 is 0.092 µM [falling, full curve, poor fit].

With `Cc1cc(C(F)(F)F)n(-c2nc(C(=O)Nc3ccccc3Oc3ccccc3)cs2)n1`, the AC50 under setting [2] was 0.13 µM [rising, full curve, poor fit].

Take `CN(Cc1nccn1C)C(=O)c1cc(COc2ccc3ncccc3c2)on1`: the cell number change was -23.2%. In addition, the AC50 under setting [2] was 23.1 µM [falling, single point].

As for `Cc1nnc(NC(=O)c2ccc3nccnc3c2)s1`, the cell number change was determined as 11.5%.

As for `O=C(c1cccs1)N1CCC(N2CCN(c3ccccc3)CC2)CC1`, the cell number change is -21.8%. Besides, the AC50 under setting [2] was 11.6 µM [rising, single point].

For `CCCc1cc(C(=O)Nc2ccn(Cc3ccc(C)cc3)n2)no1`, the cell number change is 17.5%.

Turning to `Cc1cccc(C)c1NC(=O)CSc1nnc(-c2cnccn2)n1C`, the cell number change is -11.6%. Moreover, under setting [2], the AC50 is 29.1 µM [rising, single point].

Turning to `Cn1c2c(c(O)c(-c3ccccc3)c1=O)C(=O)CC(C)(C)C2`, the cell number change is 50%. Further, under setting [1], the AC50 was 29.1 µM [rising, single point].

As for `Cc1ccc(N2CCN(Cc3ccccc3)CC2=O)c(C)c1`, the cell number change is -3.94%. In addition, under setting [2], the AC50 is 0.0291 µM [rising, full curve].

On to `C=CCN(CC=C)C(=O)c1cccc(OC2CCN(S(=O)(=O)N(C)C)CC2)c1`, for which the cell number change is -29.4%. For the same molecule, under setting [2], the AC50 was 29.1 µM [falling, single point].

For `CNc1ccc(C(=O)OCC(=O)Nc2ccnn2C(C)C)cc1[N+](=O)[O-]`, the cell number change is -1.1%. Also, the AC50 under setting [2] was 1.03 µM [rising, partial curve, poor fit].

In the case of `Cc1cccc(N2C(=O)Cc3ccccc3C2=O)c1`, the cell number change came out at 5.56%.

With `CC(=O)NC(c1cccs1)c1cc([N+](=O)[O-])c2cccnc2c1O` (stereo unspecified), the cell number change came out at 3.12%. Also, the AC50 under setting [2] was 29.1 µM [rising, single point].

For `CCOC(=O)N1CCN(C(=O)N2CCOCC2)CC1`, the cell number change was -24.8%. Moreover, the AC50 under setting [2] is 6.51 µM [falling, partial curve, poor fit].

Take `O=C(Nc1ccc(S(=O)(=O)N2CCOCC2)cc1)c1ccc(CN2CCc3ccccc3C2)cc1`: the cell number change was -19.2%.

For `CC1(NC(=O)CCNC(=O)c2ccc(C(C)(C)C)cc2)CCS(=O)(=O)C1` (stereo unspecified), the cell number change came to 2.26%. Besides, the concentration at half-maximal activity (AC50) under setting [2] is 0.103 µM [falling, partial curve, poor fit].

For `CN1C(=S)SC(N(O)C(=O)Nc2ccccc2)C1(C)C` (stereo unspecified), the cell number change was determined as 19.5%. In addition, the AC50 under setting [2] is 0.0731 µM [falling, partial curve, poor fit].

Regarding `Cc1ccc(C)c(NC(=O)CN(C)C(=O)c2cc3ccccc3o2)c1`, the cell number change was found to be 3.85%. The AC50 under setting [2] was 11.6 µM [rising, partial curve].

As for `O=S(=O)(Cc1ccccc1)Nc1ccc(F)cc1`, the cell number change amounted to 12.3%.

Turning to `CCc1cccc(NC(=O)Cn2c3[n+](c4ccc(C(F)(F)F)cc42)CCCCC3)c1`, the cell number change came to 21%. Also, under setting [2], the AC50 was 32.6 µM [rising, single point].

As to `Cc1cccc2c1N1C(=O)c3c(C(=O)O)cccc3C1CC2C` (stereo unspecified), the cell number change was 1.04%.

For `C/C(=N\Nc1ccccn1)c1cccs1`, the cell number change turned out to be 37.8%.

Take `O=C(NNC(=O)c1ccc2c(c1)OCO2)NC1CCCCC1`: the cell number change came to 6.98%. Further, the AC50 under setting [1] is 1.84 µM [rising, single point]. Moreover, the AC50 under setting [2] was 3.26 µM [rising, single point].

Values taken from PubChem BioAssay AID2685 (National Center for Advancing Translational Sciences (NCATS), 2010).
